According to article doi:10.1101/2023.02.19.529112:
These are yes or no findings as the source states them, for the method shown. Some results given as binding are weak or reduced against the parent protein; the word gives no strength. Sequences can lack the tags named with a protein.

T1: HAUS2 with C-terminal mGFP-TEV-TwinStrep tag (human) (UniProt Q9NVX0)
T1 sequence: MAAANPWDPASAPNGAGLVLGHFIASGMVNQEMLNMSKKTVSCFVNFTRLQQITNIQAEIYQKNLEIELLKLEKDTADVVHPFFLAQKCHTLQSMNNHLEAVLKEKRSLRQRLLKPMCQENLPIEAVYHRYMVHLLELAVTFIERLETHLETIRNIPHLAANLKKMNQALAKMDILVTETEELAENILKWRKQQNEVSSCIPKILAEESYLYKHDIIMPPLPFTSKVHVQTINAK

B1: HAUS1 with C-terminal 3C-His6-tag (protein, UniProt Q96CS2-1 1-278)
chain: MEPQEERETQVAAWLKKIFGDHPIPQYEVNPRTTEILHHLSERNRVRDRDVYLVIEDLKQKASEYESEAKYLQDLLMESVNFSPANLSSTGSRYLNALVDSAVALETKDTSLASFIPAVNDLTSDLFRTKSKSEEIKIELEKLEKNLTATLVLEKCLQEDVKKAELHLSTERAKVDNRRQNMDFLKAKSEEFRFGIKAAEEQLSARGMDASLSHQSLVALSEKLARLKQQTIPLKKKLESYLDLMPNPSLAQVKIEEAKRELDSIEAELTRRVDMMEL
B2: HAUS3 (protein, UniProt Q68CZ6-1 1-603)
chain: MSCGNEFVETLKKIGYPKADNLNGEDFDWLFEGVEDESFLKWFCGNVNEQNVLSERELEAFSILQKSGKPILEGAALDEALKTCKTSDLKTPRLDDKELEKLEDEVQTLLKLKNLKIQRRNKCQLMASVTSHKSLRLNAKEEEATKKLKQSQGILNAMITKISNELQALTDEVTQLMMFFRHSNLGQGTNPLVFLSQFSLEKYLSQEEQSTAALTLYTKKQFFQGIHEVVESSNEDNFQLLDIQTPSICDNQEILEERRLEMARLQLAYICAQHQLIHLKASNSSMKSSIKWAEESLHSLTSKAVDKENLDAKISSLTSEIMKLEKEVTQIKDRSLPAVVRENAQLLNMPVVKGDFDLQIAKQDYYTARQELVLNQLIKQKASFELLQLSYEIELRKHRDIYRQLENLVQELSQSNMMLYKQLEMLTDPSVSQQINPRNTIDTKDYSTHRLYQVLEGENKKKELFLTHGNLEEVAEKLKQNISLVQDQLAVSAQEHSFFLSKRNKDVDMLCDTLYQGGNQLLLSDQELTEQFHKVESQLNKLNHLLTDILADVKTKRKTLANNKLHQMEREFYVYFLKDEDYLKDIVENLETQSKIKAVSLED
B3: HAUS6 (protein, UniProt Q7Z4H7-1 1-955)
chain: MSSASVTAFEKEHLWMYLQALGFEPGPATIACGKIVSHTHLGVNMFDKLNRDAFHIISYFLFQVLDQSLTKEVFKFCWPPFDQKSDTEFRKHCCEWIKRISGECGSSFPQVVGSLFLSPGGPKFIHLMYHFARFVAMKYIKSNSKNSSHHFVETFNIKPQDLHKCIARCHFARSRFLQILQRQDCVTQKYQENAQLSVKQVRNLRSECIGLENQIKKMEPYDDHSNMEEKIQKVRSLWASVNETLMFLEKEREVVSSVLSLVNQYALDGTNVAINIPRLLLDKIEKQMFQLHIGNVYEAGKLNLLTVIQLLNEVLKVMKYERCQADQARLTVDLHYLEKETKFQKERLSDLKHMRYRIKDDLTTIRHSVVEKQGEWHKKWKEFLGLSPFSLIKGWTPSVDLLPPMSPLSFDPASEEVYAKSILCQYPASLPDAHKQHNQENGCRGDSDTLGALHDLANSPASFLSQSVSSSDRNSVTVLEKDTKMGTPKEKNEAISKKIPEFEVENSPLSDVAKNTESSAFGGSLPAKKSDPFQKEQDHLVEEVARAVLSDSPQLSEGKEIKLEELIDSLGSNPFLTRNQIPRTPENLITEIRSSWRKAIEMEENRTKEPIQMDAEHREVLPESLPVLHNQREFSMADFLLETTVSDFGQSHLTEEKVISDCECVPQKHVLTSHIDEPPTQNQSDLLNKKVICKQDLECLAFTKLSETSRMETFSPAVGNRIDVMGGSEEEFMKILDHLEVSCNKPSTNKTMLWNSFQISSGISSKSFKDNDFGILHETLPEEVGHLSFNSSSSSEANFKLEPNSPMHGGTLLEDVVGGRQTTPESDFNLQALRSRYEALKKSLSKKREESYLSNSQTPERHKPELSPTPQNVQTDDTLNFLDTCDLHTEHIKPSLRTSIGERKRSLSPLIKFSPVEQRLRTTIACSLGELPNLKEEDILNKSLDAKEPPSDLTR
B4: HAUS5 (protein, UniProt O94927-1 1-633)
chain: MELAQEARELGCWAVEEMGVPVAARAPESTLRRLCLGQGADIWAYILQHVHSQRTVKKIRGNLLWYGHQDSPQVRRKLELEAAVTRLRAEIQELDQSLELMERDTEAQDTAMEQARQHTQDTQRRALLLRAQAGAMRRQQHTLRDPMQRLQNQLRRLQDMERKAKVDVTFGSLTSAALGLEPVVLRDVRTACTLRAQFLQNLLLPQAKRGSLPTPHDDHFGTSYQQWLSSVETLLTNHPPGHVLAALEHLAAEREAEIRSLCSGDGLGDTEISRPQAPDQSDSSQTLPSMVHLIQEGWRTVGVLVSQRSTLLKERQVLTQRLQGLVEEVERRVLGSSERQVLILGLRRCCLWTELKALHDQSQELQDAAGHRQLLLRELQAKQQRILHWRQLVEETQEQVRLLIKGNSASKTRLCRSPGEVLALVQRKVVPTFEAVAPQSRELLRCLEEEVRHLPHILLGTLLRHRPGELKPLPTVLPSIHQLHPASPRGSSFIALSHKLGLPPGKASELLLPAAASLRQDLLLLQDQRSLWCWDLLHMKTSLPPGLPTQELLQIQASQEKQQKENLGQALKRLEKLLKQALERIPELQGIVGDWWEQPGQAALSEELCQGLSLPQWRLRWVQAQGALQKLCS
B5: HAUS4 (protein, UniProt Q9H6D7-1 1-363)
chain: MASGDFCSPGEGMEILQQVCSKQLPPCNLSKEDLLQNPYFSKLLLNLSQHVDESGLSLTLAKEQAQAWKEVRLHKTTWLRSEILHRVIQELLVDYYVKIQDTNVTSEDKKFHETLEQRLLVTELMRLLGPSQEREIPPLLGLEKADLLELMPLSEDFVWMRARLQQEVEEQLKKKCFTLLCYYDPNSDADSETVKAAKVWKLAEVLVGEQQQCQDAKSQQKEQMLLLEKKSAAYSQVLLRCLTLLQRLLQEHRLKTQSELDRINAQYLEVKCGAMILKLRMEELKILSDTYTVEKVEVHRLIRDRLEGAIHLQEQDMENSRQVLNSYEVLGEEFDRLVKEYTVLKQATENKRWALQEFSKVYR

Target: T1, HAUS2 with C-terminal mGFP-TEV-TwinStrep tag (human)
Assay: co-purification

binding, binds:
HAUS7 (from UniProt Q99871-1 1-358)
B1
B2
B3
B4
B5
